Data as given in PubChem BioAssay AID743458 (Peter MacCallum Cancer Centre, 2014).

- Aim: 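Retest earlier hits with independent siRNAs per gene for restoring vorinostat sensitivity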 (follow-up of hits)
- Cell system: human HCT116-VR colon cancer cells made resistant to vorinostat
- Reagent: single siRNA or pool against human genes, 25 nM per single siRNA
- Duration: about 72 h after transfection, including 24 h of drug
- Challenge: vorinostat, 2.5 µM final, for 24 h
- Detection: 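Cell viability by fluorescence and apoptosis by caspase 3/7 luminescence under vorinostat, background-corrected, averaged across two plate copies and given as fold change versus mock transfection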
- Scale: viability relative to mock: higher = more living cells than mock; caspase activity relative to mock: higher = more apoptosis than mock
- Rule for the call: 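Active means a reduced-viability or caspase-activation class, anything else inactive; classes could only be given to wells that looked healthy when left untreated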
Shown is an unselected part of about 1,800 deposited reagents. 732 of them (41%) count as active. 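Calls are per siRNA reagent; a gene was deemed confirmed only if most of its four siRNAs scored.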 Entries without a mark were called inactive. Reagents against one gene are numbered here.

no.	target gene	reagent no.	viability relative to mock	caspase activity relative to mock	viability hit class	caspase hit class
1	CAMK1 (GeneID 8536)	1	0.96	0.84	no change	no change
2	CAMK1 (GeneID 8536)	2	1.17	1.75	no change	no change
3	CAMK1 (GeneID 8536)	3	0.72	1.82	no change	no change
4	CAMK1 (GeneID 8536)	4	0.31 (active)	3.03	reduced viability	caspase activation
5	VPS52 (GeneID 6293)	1	0.92	1.29	no change	no change
6	VPS52 (GeneID 6293)	2	0.93	1.77	no change	no change
7	VPS52 (GeneID 6293)	3	0.77 (active)	3	no change	caspase activation
8	VPS52 (GeneID 6293)	4	0.38 (active)	2.5	reduced viability	no change
9	PRRT3 (GeneID 285368)	1	0.7 (active)	3.25	no change	caspase activation
10	PRRT3 (GeneID 285368)	2	0.55 (active)	6.63	reduced viability	caspase activation
11	PRRT3 (GeneID 285368)	3	0.66 (active)	4.26	no change	caspase activation
12	PRRT3 (GeneID 285368)	4	0.62	0.68	no change	no change
13	NEK7 (GeneID 140609)	1	0.96	1.32	no change	no change
14	NEK7 (GeneID 140609)	2	0.81	2.37	no change	no change
15	NEK7 (GeneID 140609)	3	0.48 (active)	5.29	reduced viability	caspase activation
16	NEK7 (GeneID 140609)	4	0.98	1.11	no change	no change
17	SH3GLB2 (GeneID 56904)	1	1	1.21	no change	no change
18	SH3GLB2 (GeneID 56904)	2	0.76 (active)	4.17	no change	caspase activation
19	SH3GLB2 (GeneID 56904)	3	0.62 (active)	3.37	no change	caspase activation
20	SH3GLB2 (GeneID 56904)	4	0.62 (active)	3.6	no change	caspase activation
21	CHCHD10 (GeneID 400916)	1	0.47 (active)	5.39	reduced viability	caspase activation
22	CHCHD10 (GeneID 400916)	2	0.57	2.28	no change	no change
23	CHCHD10 (GeneID 400916)	3	0.62	1.97	no change	no change
24	CHCHD10 (GeneID 400916)	4	0.74	2.1	no change	no change

In a second layout: results already given.
| target gene | reagent no. | viability relative to mock | caspase activity relative to mock | viability hit class | caspase hit class |
| --- | --- | --- | --- | --- | --- |
| NEK7 (GeneID 140609) | 4 | 0.98 | 1.11 | no change | no change |
| SH3GLB2 (GeneID 56904) | 1 | 1 | 1.21 | no change | no change |
| SH3GLB2 (GeneID 56904) | 2 | 0.76 (active) | 4.17 | no change | caspase activation |
| SH3GLB2 (GeneID 56904) | 3 | 0.62 (active) | 3.37 | no change | caspase activation |
| SH3GLB2 (GeneID 56904) | 4 | 0.62 (active) | 3.6 | no change | caspase activation |
| CHCHD10 (GeneID 400916) | 1 | 0.47 (active) | 5.39 | reduced viability | caspase activation |

The results go on.
no.	target gene	reagent no.	viability relative to mock	caspase activity relative to mock	viability hit class	caspase hit class
25	SIAH2 (GeneID 6478)	1	0.86	1.35	no change	no change
26	SIAH2 (GeneID 6478)	2	1.03	1.01	no change	no change
27	SIAH2 (GeneID 6478)	3	0.58	0.97	no change	no change
28	SIAH2 (GeneID 6478)	4	0.94	2.46	no change	no change
29	AVP (GeneID 551)	1	0.36 (active)	0.88	reduced viability	no change
30	AVP (GeneID 551)	2	0.62	1.42	no change	no change
31	AVP (GeneID 551)	3	0.4 (active)	0.74	reduced viability	no change
32	AVP (GeneID 551)	4	1.05	2.51	no change	no change
33	GALK1 (GeneID 2584)	1	0.88 (active)	3.59	no change	caspase activation
34	GALK1 (GeneID 2584)	2	0.6	1.84	no change	no change
35	GALK1 (GeneID 2584)	3	0.7 (active)	4.06	no change	caspase activation
36	GALK1 (GeneID 2584)	4	1.03	1.2	no change	no change
37	CATSPER4 (GeneID 378807)	1	0.88	1.03	no change	no change
38	CATSPER4 (GeneID 378807)	2	0.38 (active)	2.29	reduced viability	no change
39	CATSPER4 (GeneID 378807)	3	0.82	1.56	no change	no change
40	CATSPER4 (GeneID 378807)	4	0.92	1.23	no change	no change
